Some of the results follow. The main result of the screen is listed elsewhere. These columns were measured beside it and carry no call. Most of these compounds were active or inconclusive in the main read-out, so they are no random draw. Potencies come from curve fits of mixed quality, noted in brackets.
Assay: qHTS Assay for Identifying the Cell-Membrane Permeable IMPase Inhibitors
Details: CHO-M1 cells, IP1 accumulation, HTRF TR-FRET ratio; measured here: donor channel 620 nm AC50

Row | Structure (SMILES) | AC50
1 | COc1ccc(NC(=O)CN2CCN(c3ccc(F)cc3)CC2)cc1Cl | 0.0126 µM [rising, full curve, poor fit]
2 | CCCc1cc(=O)n2[nH]c(NCc3ccccc3F)nc2n1 | 0.126 µM [falling, full curve, poor fit]
3 | CCCOc1ccc(C2c3c(oc4ccc(F)cc4c3=O)C(=O)N2CCc2ccc(OC)cc2)cc1 (stereo not drawn) | 4.47 µM [rising, partial curve]
4 | Cc1[nH]c2ccccc2c1C(=O)COC(=O)C1CC(=O)N(Cc2ccccc2)C1 (stereo not drawn) | 0.126 µM [falling, full curve, poor fit]
5 | COc1ccc(OC)c(S(=O)(=O)Nc2ccccc2C(F)(F)F)c1 | 1 µM [falling, full curve, poor fit]
6 | CCOc1cc(C(=O)NC(C)CC)cc(OCC)c1OCC (stereo not drawn) | 0.02 µM [rising, full curve, poor fit]
7 | O=C(Nc1ccccc1F)c1ccc(COc2ccc(Cl)cc2Cl)o1 | 1 µM [falling, full curve]
8 | C=CCNC(=O)c1cccn1-c1ccsc1C(=O)OC | 5.01 µM [falling, partial curve, poor fit]
9 | N/C(=N\c1nc2c(c(=O)[nH]1)CCC2)Nc1cccc2ccccc12 | 0.398 µM [falling, full curve, poor fit]
10 | Cc1cc(C)cc(C(=O)NCCn2cc(SCC(=O)N3CCOCC3)c3ccccc32)c1 | 0.1 µM [falling, full curve, poor fit]
11 | COc1ccccc1N1CCN(C(=O)CSc2ccc3c(C)cc(C)nc3n2)CC1 | 0.126 µM [rising, full curve, poor fit]
12 | NC1(C(=O)O)C[C@@H](C(=O)O)[C@H](C(=O)O)C1 | 31.6 µM [falling, single point]
13 | COc1ccc(Br)cc1S(=O)(=O)N1CC(C)OC(C)C1 (stereo not drawn) | 12.6 µM [rising, partial curve]
14 | CCCCn1c(=N)n(CCOc2ccccc2OC)c2ccccc21 | 3.55 µM [rising, single point]
15 | Cc1onc(-c2ccccc2)c1C(=O)Nc1cccc(C#N)c1 | 0.891 µM [falling, full curve, poor fit]
16 | CCOC(=O)CN(C(=O)CSc1nnc(-c2ccncc2)n1CCCOC)c1ccccc1 | 12.6 µM [rising, partial curve, poor fit]
17 | CCOC(=O)c1sc(NC(=O)CN2C(=O)c3cccc4cccc(c34)C2=O)nc1C | 31.6 µM [falling, single point]
18 | CCCC(C)C(=O)Nc1nc(C)c(-c2csc(Nc3cc(OC)ccc3OC)n2)s1 (stereo not drawn) | 25.1 µM [falling, single point]
19 | COc1cc(-c2nc(N)n[nH]2)cc(OC)c1OC | 31.6 µM [falling, single point]
20 | CC(C)(C)n1nnnc1C(c1ccc(C#N)cc1)N1CCCC2(CCCCC2)C1 (stereo not drawn) | 31.6 µM [falling, single point]
21 | Cc1ccc(NC(=O)c2noc3c2CC(C(C)(C)C)CC3)cc1 (stereo not drawn) | 0.0398 µM [falling, full curve, poor fit]
22 | O=C(COc1ncnc2ccccc12)NCCC1=CCCCC1 | 3.98 µM [falling, partial curve]
23 | CCOC(=O)N1CCC(NC(=O)CNS(=O)(=O)c2ccc(Br)s2)CC1 | 0.1 µM [falling, full curve]
24 | CCN(CC)C(=O)CSc1nc2ccc(NC(=O)CSc3nccn3C)cc2s1 | 25.1 µM [falling, single point]

Entries 7 through 20, quoted:
Row | Structure (SMILES) | AC50
7 | O=C(Nc1ccccc1F)c1ccc(COc2ccc(Cl)cc2Cl)o1 | 1 µM [falling, full curve]
8 | C=CCNC(=O)c1cccn1-c1ccsc1C(=O)OC | 5.01 µM [falling, partial curve, poor fit]
9 | N/C(=N\c1nc2c(c(=O)[nH]1)CCC2)Nc1cccc2ccccc12 | 0.398 µM [falling, full curve, poor fit]
10 | Cc1cc(C)cc(C(=O)NCCn2cc(SCC(=O)N3CCOCC3)c3ccccc32)c1 | 0.1 µM [falling, full curve, poor fit]
11 | COc1ccccc1N1CCN(C(=O)CSc2ccc3c(C)cc(C)nc3n2)CC1 | 0.126 µM [rising, full curve, poor fit]
12 | NC1(C(=O)O)C[C@@H](C(=O)O)[C@H](C(=O)O)C1 | 31.6 µM [falling, single point]
13 | COc1ccc(Br)cc1S(=O)(=O)N1CC(C)OC(C)C1 (stereo not drawn) | 12.6 µM [rising, partial curve]
14 | CCCCn1c(=N)n(CCOc2ccccc2OC)c2ccccc21 | 3.55 µM [rising, single point]
15 | Cc1onc(-c2ccccc2)c1C(=O)Nc1cccc(C#N)c1 | 0.891 µM [falling, full curve, poor fit]
16 | CCOC(=O)CN(C(=O)CSc1nnc(-c2ccncc2)n1CCCOC)c1ccccc1 | 12.6 µM [rising, partial curve, poor fit]
17 | CCOC(=O)c1sc(NC(=O)CN2C(=O)c3cccc4cccc(c34)C2=O)nc1C | 31.6 µM [falling, single point]
18 | CCCC(C)C(=O)Nc1nc(C)c(-c2csc(Nc3cc(OC)ccc3OC)n2)s1 (stereo not drawn) | 25.1 µM [falling, single point]
19 | COc1cc(-c2nc(N)n[nH]2)cc(OC)c1OC | 31.6 µM [falling, single point]
20 | CC(C)(C)n1nnnc1C(c1ccc(C#N)cc1)N1CCCC2(CCCCC2)C1 (stereo not drawn) | 31.6 µM [falling, single point]

Following part:

Row | Structure (SMILES) | AC50
25 | COc1ccc(NC(=S)N2CCN(C(c3ccccc3)c3ccccc3)CC2)cc1OC | 0.01 µM [rising, full curve, poor fit]
26 | N#Cc1c(C(F)(F)F)cc(-c2ccc(F)cc2)nc1SCC(=O)Nc1ccccc1 | 22.4 µM [rising, partial curve]
27 | CC1CN(S(=O)(=O)c2cccc3nsnc23)CC(C)O1 (stereo not drawn) | 0.00251 µM [rising, full curve, poor fit]
28 | CCc1cc(=O)oc2cc(C)cc(O)c12 | 10 µM [rising, partial curve]
29 | O=C(Nc1nn(Cc2ccc(Cl)cc2)cc1Br)c1ccc(COc2ccccc2Cl)o1 | 0.0794 µM [falling, full curve, poor fit]
30 | CC(=O)Nc1ccc(OCC(O)CNC2CCCC2)cc1 (stereo not drawn) | 0.501 µM [falling, single point]
31 | Cc1ccc(-n2c(C)nnc2SCC(=O)Nc2ccccc2)cc1 | 0.316 µM [falling, partial curve, poor fit]
32 | O=c1c(-c2ccnn2-c2ccc(F)cc2)cnc2n1CCS2 | 20 µM [falling, single point]
33 | COc1ccc(CN(C(=S)Nc2ccccc2)C2CC(=O)N(c3ccc(Cl)cc3)C2=O)cc1 (stereo not drawn) | 0.00501 µM [rising, full curve, poor fit]
34 | O=C(O)c1cc(NCc2c(F)cccc2Cl)ccc1N1CCOCC1 | 31.6 µM [falling, single point]
35 | CC1(C)CC(=O)c2c(-c3cccnc3)n[nH]c2C1 | 35.5 µM [falling, single point]
36 | COc1cc(/C=C(/C#N)c2nc(-c3cc4ccccc4oc3=O)cs2)ccc1O | 35.5 µM [falling, single point]
37 | O=C(NCCc1ccc(F)cc1)c1cccs1 | 0.251 µM [rising, single point]
38 | CCN(CCO)c1ncnc2c1sc1nc(C(C)C)c3c(c12)CC(C)(C)OC3 | 12.6 µM [rising, single point]
39 | CCCCOc1ccc(CNC(=O)NS(=O)(=O)c2ccc(OCC)cc2)cc1 | 2.51 µM [falling, partial curve, poor fit]
40 | C=CCSc1nnc(-c2cccnc2)o1 | 0.0708 µM [falling, full curve]
41 | N#Cc1cc2nc(O)c(O)nc2cc1[N+](=O)[O-] | 0.002 µM [falling, full curve, poor fit]
42 | CC(CCc1ccccc1)NC(=O)C(Cc1ccccc1)NS(=O)(=O)c1cccs1 (stereo not drawn) | 0.0501 µM [falling, full curve, poor fit]
43 | Cc1oc(CC(C)C)c(CN2CCCC2)c1C(=O)O | 10 µM [falling, partial curve]
44 | Cc1nnc(N2C(=O)c3oc4ccccc4c(=O)c3C2c2cccc(OCCC(C)C)c2)s1 (stereo not drawn) | 25.1 µM [rising, single point]
45 | O=C(CNc1ccccc1)N/N=C/c1c[nH]c2ccccc12 | 22.4 µM [falling, single point]
46 | N[C@@H](C(=O)O)c1ccc(C(=O)O)cc1 | 15.8 µM [falling, partial curve, poor fit]
47 | Cn1c(=O)n(C)c2cc([N+](=O)[O-])c(N3CCN(C(=O)c4ccccc4)CC3)cc21 | 0.631 µM [falling, full curve, poor fit]
48 | COc1ccc(-c2nc(N3CCC(C)CC3)[nH]c(=O)c2C#N)cc1 | 31.6 µM [rising, single point]
